Counter-ions that a name gives are not always drawn. The list shows a part of the results. This data set is noisy: repeats of one test often differ as much as different tests do.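 FDA-approved drugs were each paired with colistin at one-eighth its MIC and screened against a multidrug-resistant, mcr-1-positive clinical E. coli isolate, with OD600 read after 24 h. Drug-free bacteria served as growth control, plain broth as blank. Combinations were active if OD600 dropped below 0.2.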

The results in this text go back to the supplement of paper PMC11546906.

The test system of the assay is Escherichia coli 42 (mcr-1-positive clinical isolate). As to the kind of experiment: OD600 after 24 h growth with compound plus colistin (absorbance units (OD600)); higher = more bacterial growth (less inhibition). The note with it: first compound 25 µM; colistin concentration 0.5 ug/mL; incubation time 24 h; 37 °C.
For the compound `COc1cc(N)c(Cl)cc1C(=O)NC1CCN(CCCOc2ccc(F)cc2)CC1OC` (configuration not stated) [Cisapride] + CCC(C)CCCC(=O)N[C@@H](CCN)C(=O)N[C@H](C(=O)N[C@@H](CCN)C(=O)N[C@H]1CCNC(=O)[C@H]([C@@H](C)O)NC(=O)[C@H](CCN)NC(=O)[C@H](CCN)NC(=O)[C@H](CC(C)C)NC(=O)[C@@H](CC(C)C)NC(=O)[C@H](CCN)NC1=O)[C@@H](C)O [colistin], the OD600 was inactive: 1.07. On to `CC(C)Nc1nc2cc(Cl)c(Cl)cc2n1[C@H]1O[C@@H](CO)[C@H](O)[C@@H]1O` [Maribavir] + CCC(C)CCCC(=O)N[C@@H](CCN)C(=O)N[C@H](C(=O)N[C@@H](CCN)C(=O)N[C@H]1CCNC(=O)[C@H]([C@@H](C)O)NC(=O)[C@H](CCN)NC(=O)[C@H](CCN)NC(=O)[C@H](CC(C)C)NC(=O)[C@@H](CC(C)C)NC(=O)[C@H](CCN)NC1=O)[C@@H](C)O [colistin], for which the OD600 is inactive: 1.03.

For the compound `COc1cc2nccc(Oc3ccc(NC(=O)NC4CC4)c(Cl)c3)c2cc1C(N)=O` [Lenvatinib mesylate] + CCC(C)CCCC(=O)N[C@@H](CCN)C(=O)N[C@H](C(=O)N[C@@H](CCN)C(=O)N[C@H]1CCNC(=O)[C@H]([C@@H](C)O)NC(=O)[C@H](CCN)NC(=O)[C@H](CCN)NC(=O)[C@H](CC(C)C)NC(=O)[C@@H](CC(C)C)NC(=O)[C@H](CCN)NC1=O)[C@@H](C)O [colistin], the OD600 is inactive: 0.961.

As to `CC(C)(CO)c1cc2cc(NC(=O)C3(c4ccc5c(c4)OC(F)(F)O5)CC3)c(F)cc2n1C[C@@H](O)CO` [Tezacaftor] + CCC(C)CCCC(=O)N[C@@H](CCN)C(=O)N[C@H](C(=O)N[C@@H](CCN)C(=O)N[C@H]1CCNC(=O)[C@H]([C@@H](C)O)NC(=O)[C@H](CCN)NC(=O)[C@H](CCN)NC(=O)[C@H](CC(C)C)NC(=O)[C@@H](CC(C)C)NC(=O)[C@H](CCN)NC1=O)[C@@H](C)O [colistin], the OD600 was inactive: 0.999. Regarding `Nc1ccc(S(=O)(=O)Nc2ncccn2)cc1` [Sulfadiazine] + CCC(C)CCCC(=O)N[C@@H](CCN)C(=O)N[C@H](C(=O)N[C@@H](CCN)C(=O)N[C@H]1CCNC(=O)[C@H]([C@@H](C)O)NC(=O)[C@H](CCN)NC(=O)[C@H](CCN)NC(=O)[C@H](CC(C)C)NC(=O)[C@@H](CC(C)C)NC(=O)[C@H](CCN)NC1=O)[C@@H](C)O [colistin], the OD600 was inactive: 1.06.

With `CS(=O)(=O)CCNCc1ccc(-c2ccc3ncnc(Nc4ccc(OCc5cccc(F)c5)c(Cl)c4)c3c2)o1` [Lapatinib ditosylate] + CCC(C)CCCC(=O)N[C@@H](CCN)C(=O)N[C@H](C(=O)N[C@@H](CCN)C(=O)N[C@H]1CCNC(=O)[C@H]([C@@H](C)O)NC(=O)[C@H](CCN)NC(=O)[C@H](CCN)NC(=O)[C@H](CC(C)C)NC(=O)[C@@H](CC(C)C)NC(=O)[C@H](CCN)NC1=O)[C@@H](C)O [colistin], the OD600 was inactive: 1.09. Regarding `CCN[C@H]1CN(CCCOC)S(=O)(=O)c2sc(S(N)(=O)=O)cc21` [Brinzolamide] + CCC(C)CCCC(=O)N[C@@H](CCN)C(=O)N[C@H](C(=O)N[C@@H](CCN)C(=O)N[C@H]1CCNC(=O)[C@H]([C@@H](C)O)NC(=O)[C@H](CCN)NC(=O)[C@H](CCN)NC(=O)[C@H](CC(C)C)NC(=O)[C@@H](CC(C)C)NC(=O)[C@H](CCN)NC1=O)[C@@H](C)O [colistin], the OD600 was inactive: 1. In the case of `CC(=O)OC(C)C[N+](C)(C)C` (configuration not stated) [Methacholine Chloride] + CCC(C)CCCC(=O)N[C@@H](CCN)C(=O)N[C@H](C(=O)N[C@@H](CCN)C(=O)N[C@H]1CCNC(=O)[C@H]([C@@H](C)O)NC(=O)[C@H](CCN)NC(=O)[C@H](CCN)NC(=O)[C@H](CC(C)C)NC(=O)[C@@H](CC(C)C)NC(=O)[C@H](CCN)NC1=O)[C@@H](C)O [colistin], the OD600 was inactive: 1.04. In the case of `Cc1c(OCC(F)(F)F)ccnc1C[S@@+]([O-])c1nc2ccccc2[nH]1` [(R)-Lansoprazole] + CCC(C)CCCC(=O)N[C@@H](CCN)C(=O)N[C@H](C(=O)N[C@@H](CCN)C(=O)N[C@H]1CCNC(=O)[C@H]([C@@H](C)O)NC(=O)[C@H](CCN)NC(=O)[C@H](CCN)NC(=O)[C@H](CC(C)C)NC(=O)[C@@H](CC(C)C)NC(=O)[C@H](CCN)NC1=O)[C@@H](C)O [colistin], the OD600 was inactive: 1.08. Regarding `CCCCc1oc2ccccc2c1C(=O)c1cc(I)c(OCCN(CC)CC)c(I)c1` [Amiodarone hydrochloride] + CCC(C)CCCC(=O)N[C@@H](CCN)C(=O)N[C@H](C(=O)N[C@@H](CCN)C(=O)N[C@H]1CCNC(=O)[C@H]([C@@H](C)O)NC(=O)[C@H](CCN)NC(=O)[C@H](CCN)NC(=O)[C@H](CC(C)C)NC(=O)[C@@H](CC(C)C)NC(=O)[C@H](CCN)NC1=O)[C@@H](C)O [colistin], the OD600 was inactive: 1.08. Regarding `CN(C/C=C/C#CC(C)(C)C)Cc1cccc2ccccc12` [Terbinafine hydrochloride] + CCC(C)CCCC(=O)N[C@@H](CCN)C(=O)N[C@H](C(=O)N[C@@H](CCN)C(=O)N[C@H]1CCNC(=O)[C@H]([C@@H](C)O)NC(=O)[C@H](CCN)NC(=O)[C@H](CCN)NC(=O)[C@H](CC(C)C)NC(=O)[C@@H](CC(C)C)NC(=O)[C@H](CCN)NC1=O)[C@@H](C)O [colistin], the OD600 was inactive: 0.76.

For `CO[C@H]1/C=C/O[C@@]2(C)Oc3c(C)c(O)c4c(O)c(c(/C=N/N5CCN(C)CC5)c(O)c4c3C2=O)NC(=O)/C(C)=C\C=C\[C@H](C)[C@H](O)[C@@H](C)[C@@H](O)[C@@H](C)[C@H](OC(C)=O)[C@@H]1C` [Rifampicin] + CCC(C)CCCC(=O)N[C@@H](CCN)C(=O)N[C@H](C(=O)N[C@@H](CCN)C(=O)N[C@H]1CCNC(=O)[C@H]([C@@H](C)O)NC(=O)[C@H](CCN)NC(=O)[C@H](CCN)NC(=O)[C@H](CC(C)C)NC(=O)[C@@H](CC(C)C)NC(=O)[C@H](CCN)NC1=O)[C@@H](C)O [colistin], the OD600 is active: 0.05.
